# Laboratory results published in PubChem BioAssay AID1487 (National Center for Advancing Translational Sciences (NCATS), 2009).
# The campaign covered roughly 200,000 compounds. About 25 (0.01%) were called active. Inconclusive means that the source gave no clear call. Such entries were picked first, then a sample of the others. Calls come from the whole dose curve; as a rule, active = well fitted inhibition curve with a large enough effect in the signal ratio, with a control signal flat (not every such curve was filed as active); inconclusive = small, poorly fitted or top-dose-only effect, or effect the other way, or a change in a side signal; inactive = flat fitted curve, though single readings scatter; the % refers to the signal ratio. Potencies beside an inconclusive call are fits to weak or partial responses and may not hold up.
# Experiment: qHTS Assay for Modulators of Lamin A Splicing
# Details: HeLa LMNA splicing GFP/RFP minigene ratio, 48 h; ratio change, negative = inhibition: at 46.1 µM (top of the series) unless noted
# Method in brief: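 S3 HeLa stable clones carrying a lamin A-EGFP splicing minigene plus DsRed2 were seeded at 600 cells/well in Opti-MEM with 2% FBS, pin-dosed and incubated 48 h at 37°C. Acumen cytometry (488 nm) gave the GFP/RFP total-intensity ratio.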
# % is set by controls: 0 for no effect and ±100 for the full control effect; potency is the fitted concentration of half-maximal effect.
Compound,"ratio change, negative = inhibition",Potency
O=C(O)CC/C(=C\c1ccc(Cl)c([N+](=O)[O-])c1)c1nc2ccccc2s1,inactive,–
Cc1cccc(CSc2nc(=O)c3c(n2C)NC(=O)CC3c2cccc(O)c2)c1 (stereo unspecified),inconclusive: 19.4% [at 46 µM],–
Cc1ccc(S(=O)(=O)Oc2ccc(/C=N/N=C3/NC(=O)C(CC(=O)O)S3)cc2)cc1 (stereo unspecified),inactive,–
O=C(Nc1cc2c(cc1Br)OCCCO2)c1ccccc1,inconclusive: -1.29%,–
CCc1oc2ccccc2c1C(=O)CCN1CCCCC1,inactive,–
COCCN1Cc2cccc(C(=O)NCc3ccccc3OC)c2C1=O,inactive,–
CCC1CCCCN1S(=O)(=O)c1ccc(NC(=O)CSc2ncccc2C(=O)O)cc1 (stereo unspecified),inactive,–
CC(=O)c1cc(-c2ccccc2)n(CCC(=O)Nc2nc3c(C)cccc3s2)c1C,inactive,–
CCOC(=O)c1c(C)[nH]c(C)c1S(=O)(=O)N(C)CC(=O)N1CCN(c2cccc(Cl)c2)CC1,inconclusive: -19.5% [at 46 µM],–
c1ccc(-c2c(-c3ccccc3)n(Cc3ccco3)c3ncnc(NCCCn4ccnc4)c23)cc1,inactive,–
CCOC(=O)c1c(C)[nH]c(C(=O)NCc2ccco2)c1C,inconclusive: 14.8% [at 46 µM],–
CCNCCNC(=O)c1c(O)c2cccc3c2n(c1=O)CCC3,inconclusive: 5.92%,–
CCOC(=O)C(=O)/C(=C\N(C)C)c1onc(-c2c(F)cccc2Cl)c1C(=O)OC,inactive,–
C=CCc1ccc(OCCCN2CCCC(C)C2)c(OC)c1 (stereo unspecified),inactive,–
O=C(COc1ccc(Cl)cc1)OCC(=O)N1CCCc2ccccc21,inactive,–
CCN(CC)S(=O)(=O)c1ccc(C(=O)Nc2nnc(COC)o2)cc1,inconclusive: 0.246% [at 46 µM],–
O=c1c(-c2ccccc2)nc2cnc(Oc3cccc(Cl)c3)nc2n1C[C@H]1CCCO1,inconclusive: -7.51%,–
Cc1cc(C(=O)N/N=C/c2cccc([N+](=O)[O-])c2)c2ccccc2n1,inactive,–
Cc1cc(S(=O)(=O)N2CCCC2)ccc1OCC(=O)NCc1ccco1,inactive,–
C/C(=N\NC(=O)C(N)=O)c1ccc(OC(F)F)cc1,inconclusive: -5.2% [at 46 µM],–
N#Cc1ccccc1NC(=O)C(=O)NCC(c1cccnc1)N1CCc2ccccc21 (stereo unspecified),inconclusive: 18.8% [at 46 µM],–
Cc1ccccc1N1C(=O)C(Cl)=C(N2CCN(c3ccccc3)CC2)C1=O,inactive,–

Compound,"ratio change, negative = inhibition",Potency
CC(C)NNC(=O)c1ccncc1,inconclusive: -1.25%,–
CCOC(=O)N1CCC(N2CCCC(C(=O)c3ccc4cc(OC)ccc4c3)C2)CC1 (stereo unspecified),inconclusive: -24.5% [at 46 µM],–
CC(C)CN1C=C2C(=O)C(C)(OC(=O)CCc3ccccc3)C(=O)C=C2C=C1c1ccc(C#N)cc1 (stereo unspecified),inconclusive: -15.1% [at 9.22 µM],–
O=C(CCN1C(=O)C2(OCCO2)c2ccccc21)c1ccccc1,inactive,–
CCn1c(-c2ccc([N+](=O)[O-])cc2)n[nH]c1=S,inconclusive: 5.87%,–
CC1C(=O)CC(c2ccco2)NC1c1ccco1 (stereo unspecified),inactive,–
Cc1ccc(C2=[N+]([O-])C3(CCCCC/C3=N\O)N(O)C2(C)C)o1 (stereo unspecified),inactive,–
CCCCC(=O)Nc1ccc(C(=O)OCc2cc(=O)n3ccsc3n2)cc1,inconclusive: 5.8% [at 46 µM],–
Cc1ccc(NC(=O)Cn2c(=O)cc(-c3ccccc3)c3c(C)nn(C)c32)c(Cl)c1,inconclusive: 14.2% [at 46 µM],–
C=CCNC(=O)c1onc(CSc2ccc(Cl)cc2)c1C(=O)O,–,"inconclusive: 15.8 µM [inhibitor, single point]"
Cc1ccc2c(c1)cc(CN(Cc1ccc3c(c1)OCO3)S(=O)(=O)c1ccccc1)c1nnnn12,inconclusive: 12.7%,–
CC1=C(C(=O)OCC(C)C)C(c2cccc(F)c2)N2C(=O)C(C)SC2=N1 (stereo unspecified),inactive,–
Cc1ccccc1CNC(=O)c1ccc(Cn2c(SCc3ccccc3)nc3cccnc32)cc1,inconclusive: -0.616% [at 46 µM],–
COc1ccc(C(C(=O)NC2CCCCC2)N(C(=O)Cc2c[nH]c3ccccc23)c2ccccc2)cc1OC (stereo unspecified),inconclusive: -15%,–
Cc1ccc(-c2csc(NNC(=O)c3ccccc3)n2)cc1,–,"inconclusive: 35.5 µM [fluorescent, single point]"
O=C(CCCSc1nc(-c2ccco2)cc(C(F)(F)F)n1)NCc1cccs1,inconclusive: 8.11%,–
Cc1cccc(C)c1NC(=O)CN(C)S(=O)(=O)c1ccc2[nH]c3c(c2c1)CCCC3,inconclusive: -23.7% [at 46 µM],–
COc1ccc(C(=O)Nc2ccc(-c3cn4ccsc4n3)cc2)cc1S(=O)(=O)N1CCOCC1,inconclusive: 23.8%,–
Cc1ccc(O)c(NC(=O)COCc2cc(-c3ccco3)on2)c1,inactive,–
COc1ccc(/C=C/C(=O)OCC(=O)Nc2ccc(Cl)c(S(=O)(=O)N(C)C)c2)cc1OC,inactive,–
O=C1c2cccc(O)c2C(=O)c2c(O)cccc21,–,"inconclusive: 10 µM [inhibitor, partial curve]"
O=C(CCNC(=O)c1ccccc1Cl)Nc1ccc(Cl)c(C(F)(F)F)c1,inactive,–

Compound,"ratio change, negative = inhibition",Potency
CC(C)(C)C(=O)C[n+]1cccc(C(N)=O)c1,inactive,–
CCCCCCC1CC(CCc2nc(=S)[nH][nH]2)C(=O)O1 (stereo unspecified),inactive,–
C=CCn1c(SCC(=O)/C(C#N)=C(\C)N)nc2sc(CC)cc2c1=O,–,"inconclusive: 35.5 µM [fluorescent, single point]"
CCCCCc1nnc(NC(=O)C2CCCO2)s1 (stereo unspecified),inactive,–
COn1c(=O)c(=O)n(O)c2ccccc21,inactive,–
COc1ccc(CN2CCN(S(=O)(=O)c3ccc(NC(C)=O)cc3)CC2)c(OC)c1OC,inconclusive: 6.65% [at 46 µM],–
CCc1nc2ccccc2n1Cc1ccccc1F,inconclusive: -21% [at 9.22 µM],–
Cc1ccc(-c2cc(C(F)F)nc(NCC3CCCO3)n2)cc1 (stereo unspecified),inconclusive: -30.8%,–
COC(=O)N/N=C/c1cc(Cl)cc(Cl)c1OCc1ccc(F)cc1,inconclusive: 6.46%,–
CCOC(=O)c1cccc(NC(=O)c2sc3nc[nH]c(=O)c3c2C)c1,inactive,–
O=C(CSc1nc2ccccc2nc1Cc1ccccc1)N1CCCc2ccccc21,inactive,–
CC(C)[C@H]1CC[C@@H](C)C(C(=O)c2ccccc2)C1=O (stereo partly specified),inconclusive: 0.997%,–
COc1cccc(-c2cc3nc(-c4ccccc4)cc(N4CCCC(O)C4)n3n2)c1 (stereo unspecified),inconclusive: 21.4% [at 46 µM],–
O=C(O)c1ccccc1NCCO,inconclusive: 19.8% [at 9.22 µM],–
FC(F)Oc1ccc(NC(=S)NCc2ccccc2)cc1Cl,–,"inconclusive: 35.5 µM [falling, single point]"
CCc1nnc(NC(=O)CSc2nc3c([nH]c4ccccc43)c(=O)n2-c2ccc(OC)cc2)s1,inconclusive: 31% [at 46 µM],–
Cc1cc(N2CCN(c3nnnn3-c3ccccc3)CC2)n2ncnc2n1,inactive,–
CCOC(=O)c1cnc(SCC(=O)c2ccccc2)nc1N,inconclusive: 17.7%,–
O=C(C1CCCCC1)N(Cc1cccnc1)c1nc2ccc(F)cc2s1,inactive,–
C=CCn1c(C)cc(C(=O)CSc2nc(N)cc(N)n2)c1C,inactive,–
O=c1cc(N2CCOCC2)oc2c(-c3ccccc3)cccc12,–,active: 15.8 µM
Cc1ccc([N+](=O)[O-])cc1NC(=S)NC(=O)CC(C)(C)C,inactive,–

Compound,"ratio change, negative = inhibition",Potency
COc1ccc(Cl)cc1NC(=S)N1CCN(C(=O)c2ccco2)CC1,inactive,–
Fc1ccc(-n2ncc3c(N4CCN(Cc5ccccc5)CC4)ncnc32)cc1,–,"inconclusive: 14.1 µM [inhibitor, partial curve, poor fit]"
CN(CC(=O)Nc1ccc(N2CCOCC2)cc1)Cc1c(O)ccc2ccccc12,inactive,–
CC(C)N(Cc1ccccc1)C(=S)NCc1ccccc1,inconclusive: -13.3% [at 46 µM],–
O=C(O)/C=C/C(=O)NNc1ccc([N+](=O)[O-])cc1,inconclusive: 11.4% [at 46 µM],–
COc1cccc(CNC(=O)CSc2n[nH]c(-c3ccccc3Cl)n2)c1,inconclusive: 6.1% [at 46 µM],–
Cc1ccc(C(=O)c2ccc([N+](=O)[O-])cc2)cc1C,inactive,–
CNC1C(O)C(OC2C(NC(=O)C(O)CN)CC(N)C(OC3OC(CN)C(O)C(O)C3O)C2O)OCC1(C)O (stereo unspecified),inconclusive: 13.5%,–
CCN(CC)C(=O)CSc1ncnc2c(-c3cccs3)nsc12,inconclusive: -36.6%,–
CCOC(=O)c1ccc(NC(=S)N2CCSC2c2ccc(Cl)cc2)cc1 (stereo unspecified),inconclusive: -16.5%,–
O=C(CCC1N=C2c3ccccc3N=C(SCC(=O)NCCc3ccccc3)N2C1=O)NCc1ccc(F)cc1 (stereo unspecified),inconclusive: 2.52% [at 46 µM],–
CCN1C=C(Cc2ccccc2C)C2=C(C1)C(c1ccccc1C)C(C#N)=C(N)O2 (stereo unspecified),inconclusive: -31%,–
CCOC(=O)c1ccc(NC=C2C(=O)OC3(CCCCC3)OC2=O)cc1,inactive,–
CN1CCN(C(=O)C2(NC(=O)Nc3ccccc3Cl)CCCCC2)CC1,inactive,–
Cc1ccc2[nH]c(=O)c(CN(Cc3cccs3)S(=O)(=O)c3ccc4c(c3)OCCO4)cc2c1,inactive,–
CC1CCCCN1S(=O)(=O)c1cnc(Cl)c(Br)c1 (stereo unspecified),inactive,–
Cc1occc1C(=O)NCc1cccs1,inactive,–
Cc1noc(NS(=O)(=O)c2ccc(NC(=O)C34CC5CC(C3)CC(n3cnc(Cl)n3)(C5)C4)cc2)c1C,inconclusive: -6.67%,–
COc1ccc(CNC(=O)C(=O)NCC(c2cccs2)S(=O)(=O)c2cccs2)cc1 (stereo unspecified),inconclusive: -14.8% [at 46 µM],–
COc1ccccc1N1CCN(C(=O)Cn2nc3n(C)c4ccccc4n3c(=O)c2=O)CC1,inconclusive: 29.8% [at 46 µM],–

# 18 entries from above, ordered by length of the SMILES, rising:
Compound,"ratio change, negative = inhibition",Potency
CC(C)NNC(=O)c1ccncc1,inconclusive: -1.25%,–
CCCCCc1nnc(NC(=O)C2CCCO2)s1 (stereo unspecified),inactive,–
CC(C)N(Cc1ccccc1)C(=S)NCc1ccccc1,inconclusive: -13.3% [at 46 µM],–
Cc1ccc(-c2csc(NNC(=O)c3ccccc3)n2)cc1,–,"inconclusive: 35.5 µM [fluorescent, single point]"
CCNCCNC(=O)c1c(O)c2cccc3c2n(c1=O)CCC3,inconclusive: 5.92%,–
CCCCCCC1CC(CCc2nc(=S)[nH][nH]2)C(=O)O1 (stereo unspecified),inactive,–
O=C(O)/C=C/C(=O)NNc1ccc([N+](=O)[O-])cc1,inconclusive: 11.4% [at 46 µM],–
COC(=O)N/N=C/c1cc(Cl)cc(Cl)c1OCc1ccc(F)cc1,inconclusive: 6.46%,–
Cc1cc(S(=O)(=O)N2CCCC2)ccc1OCC(=O)NCc1ccco1,inactive,–
CCOC(=O)c1ccc(NC=C2C(=O)OC3(CCCCC3)OC2=O)cc1,inactive,–
CN(CC(=O)Nc1ccc(N2CCOCC2)cc1)Cc1c(O)ccc2ccccc12,inactive,–
Cc1cccc(CSc2nc(=O)c3c(n2C)NC(=O)CC3c2cccc(O)c2)c1 (stereo unspecified),inconclusive: 19.4% [at 46 µM],–
CC1=C(C(=O)OCC(C)C)C(c2cccc(F)c2)N2C(=O)C(C)SC2=N1 (stereo unspecified),inactive,–
O=c1c(-c2ccccc2)nc2cnc(Oc3cccc(Cl)c3)nc2n1C[C@H]1CCCO1,inconclusive: -7.51%,–
COc1ccc(CN2CCN(S(=O)(=O)c3ccc(NC(C)=O)cc3)CC2)c(OC)c1OC,inconclusive: 6.65% [at 46 µM],–
COc1ccc(/C=C/C(=O)OCC(=O)Nc2ccc(Cl)c(S(=O)(=O)N(C)C)c2)cc1OC,inactive,–
O=C(CCC1N=C2c3ccccc3N=C(SCC(=O)NCCc3ccccc3)N2C1=O)NCc1ccc(F)cc1 (stereo unspecified),inconclusive: 2.52% [at 46 µM],–
CC(C)CN1C=C2C(=O)C(C)(OC(=O)CCc3ccccc3)C(=O)C=C2C=C1c1ccc(C#N)cc1 (stereo unspecified),inconclusive: -15.1% [at 9.22 µM],–
